Source: PMC6368335, “Inhibition of the Staphylococcus aureus c-di-AMP cyclase DacA by direct interaction with the phosphoglucosamine mutase GlmM” (PLoS Pathogens, 2019)
No constants are given. Whether binding was seen depends on the method and setting. Binding calls can cover weak binding; strength is not graded here. Tags and fused reporters may be left off the sequences shown.

Columns and labels:
[1] = molecular target: T1, S. aureus phosphoglucosamine mutase GlmM, C-terminally His-tagged (GlmM-His) (S. aureus) (UniProt P0C0V7); test: pull-down; 50 uM tag-less DacACD and 50 uM GlmM-His mixed in 30 mM Tris pH 7.5, 150 mM NaCl, 10 min on ice; Ni-NTA column, wash with 10 mM imidazole, elution with 500 mM imidazole; Coomassie-stained SDS-PAGE; both purified
T1 sequence: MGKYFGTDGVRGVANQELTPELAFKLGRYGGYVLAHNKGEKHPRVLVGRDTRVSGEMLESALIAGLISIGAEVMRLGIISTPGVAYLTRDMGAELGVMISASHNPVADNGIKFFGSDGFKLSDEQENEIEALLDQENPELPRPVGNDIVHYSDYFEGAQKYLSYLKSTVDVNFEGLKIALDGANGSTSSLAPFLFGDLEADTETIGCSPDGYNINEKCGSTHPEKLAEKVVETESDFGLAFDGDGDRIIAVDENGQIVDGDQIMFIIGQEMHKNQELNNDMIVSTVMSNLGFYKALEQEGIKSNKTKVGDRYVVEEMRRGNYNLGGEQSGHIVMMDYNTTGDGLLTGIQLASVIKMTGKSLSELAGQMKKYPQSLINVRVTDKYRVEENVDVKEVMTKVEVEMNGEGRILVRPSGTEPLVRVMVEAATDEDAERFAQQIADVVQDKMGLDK

[2] = molecular target: T1, S. aureus phosphoglucosamine mutase GlmM, C-terminally His-tagged (GlmM-His) (S. aureus); test: SEC; E. coli lysates with His-DacACD and GlmM-His mixed (10 min on ice), Ni-NTA, then Superdex 200 10/60 Hiload in 30 mM Tris pH 7.5, 150 mM NaCl; fractions on Coomassie-stained SDS-PAGE

Row | binding [1] | binding [2] | Substance
1 | binds |  | S. aureus DacA catalytic domain (DacACD), tag-less (domain or fragment)
2 |  | binds | S. aureus His-DacACD (N-terminal His-tag fusion of the DacA catalytic domain) (domain or fragment)
